Assay results as given in patent publication US20260226143A1.
Results are given in words; binding and its absence hold for the method and conditions named. Some entries that bind do so weakly or less than the wild type.

Chains of the proteins cited; added tags and fusions are not shown. Residues count along the entry.
UniProt P05067, residues 672-713: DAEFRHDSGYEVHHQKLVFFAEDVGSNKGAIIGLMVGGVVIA

B1: h2927 (antibody, V domains shown)
VH: EVQLLESGGGLVQPGGSLRLSCAASGFTFSNFGMSWVRQAPGKGLEWVASVRSGSGRTYYSDNVKGRFTISRDNSKNTLYLQMNSLRAEDTAVYYCVRYDHYTGTSDYWGQGTLVTVSS
VL: DVVMTQSPLSLPVTPGEPASISCKSSQSLLDYDGKTYLNWLLQKPGQSPQRLIYKVSNRDSGVPDRFSGSGSGTDFTLKISRVEAEDVGVYYCWQGTHFPRSFGQGTKVEIK
B2: h2826 (antibody, V domains shown)
VH: EVQLLESGGGLVQPGGSLRLSCAASGFTFSNFGMSWVRQAPGKGLEWVASVRSGSGRTYYSDNVKGRFTISRDNSKNTLYLQMNSLRAEDTAVYYCVRYDHYSGTSDYWGQGTLVTVSS
VL: DVVMTQSPLSLPVTPGEPASISCKSSQSLLDYDGKTYLNWLLQKPGQSPQRLIYKVSNRDSGVPDRFSGSGSGTDFTLKISRVEAEDVGVYYCWQGTHFPRTFGQGTKVEIK
B3: h2929 (antibody, V domains shown)
VH: EVQLLESGGGLVQPGGSLRLSCAASGFTFSNFGMSWVRQAPGKGLEWVASVRSGSGRTYYSDNVKGRFTISRDNSKNTLYLQMNSLRAEDTAVYYCVRYDHYTGTSDYWGQGTLVTVSS
VL: DVVMTQSPLSLPVTPGEPASISCRSSQSLVDYDGKTYLNWLLQRPGQSPQRLIYKVSNRDSGVPDRFSGSGSGTDFTLKISRVEAEDVGVYYCWQGSHFPRSYGQGTKVEIK
B4: h2831 (antibody, V domains shown)
VH: EVQLLESGGGLVQPGGSLRLSCAASGFTFSNFGMSWVRQAPGKGLEWVASVRSGSGRTYYSDNVKGRFTISRDNSKNTLYLQMNSLRAEDTAVYYCVRYDHYSGTSDYWGQGTLVTVSS
VL: DVVMTQSPLSLPVTLGEPASISCKSSQSLLDYDGKTYLNWLLQKPGQSPQRLIYRVTNRDTGVPDRFSGSGSGTDFTLKISRVEAEDVGVYYCWQGTHFPRSFGQGTKVEIK
B5: h2931 (antibody, V domains shown)
VH: EVQLLESGGGLVQPGGSLRLSCAASGFTFSNFGMSWVRQAPGKGLEWVASVRSGSGRTYYSDNVKGRFTISRDNSKNTLYLQMNSLRAEDTAVYYCVRYDHYTGTSDYWGQGTLVTVSS
VL: DVVMTQSPLSLPVTLGEPASISCKSSQSLLDYDGKTYLNWLLQKPGQSPQRLIYRVTNRDTGVPDRFSGSGSGTDFTLKISRVEAEDVGVYYCWQGTHFPRSFGQGTKVEIK
B6: h49k3G (antibody, V domains shown)
VH: EVQLLESGGGLVQPGGSLRLSCAASGFTFSNFGMSWVRQAPGKGLEWVASVRSGGGRTYYSDNVKGRFTISRDNSKNTLYLQMNSLRAEDTAVYYCVRYDHYSGTSDYWGQGTLVTVSS
VL: DVVMTQSPLSLPVTLGEPASISCKSSQSLLDSDGKTYLNWLLQKPGQSPQRLIYKVSNRDSGVPDRFSGSGSGTDFTLKISRVEAEDVGVYYCWQGTHFPRTFGQGTKVEIK
B7: BAN2401 (antibody, human IgG1, kappa, V domains shown)
VH: QVELVESGGGLVQPGGSLRLSCAASGFTFSSYAMSWVRQAPGKGLEWVSAINASGTRTYYADSVKGRFTISRDNSKNTLYLQMNSLRAEDTAVYYCARGKGNTHKPYGYVRYFDVWGQGTLVTVSS
VL: DIVLTQSPATLSLSPGERATLSCRASQSVSSSYLAWYQQKPGQAPRLLIYGASSRATGVPARFSGSGSGTDFTLTISSLEPEDFATYYCLQIYNMPITFGQGTKVEIKR
B8: h2926 (antibody, V domains shown)
VH: EVQLLESGGGLVQPGGSLRLSCAASGFTFSNFGMSWVRQAPGKGLEWVASVRSGSGRTYYSDNVKGRFTISRDNSKNTLYLQMNSLRAEDTAVYYCVRYDHYTGTSDYWGQGTLVTVSS
VL: DVVMTQSPLSLPVTPGEPASISCKSSQSLLDYDGKTYLNWLLQKPGQSPQRLIYKVSNRDSGVPDRFSGSGSGTDFTLKISRVEAEDVGVYYCWQGTHFPRTFGQGTKVEIK

Tests used:
[1] = target: recombinant Aβ1-42 fibrils (human); assay: competition ELISA on plate-coated Aβ42 fibrils; unlabelled antibody titrated against biotinylated hBP (labelled competitor)
Aβ1-28 (human) = assay: SPR (BIAcore), antibody captured by anti-human Fc, Aβ1-28 as analyte
[2] = target: Aβ pathology (plaques) in frozen human AD brain sections (human) (UniProt P05067); assay: IHC on frozen AD brain AD 13-75 (FIG. 13); the weaker binder
[3] = target: Aβ pathology (plaques) in frozen human AD brain sections (human) (UniProt P05067); assay: IHC on frozen AD brain AD 13-75, 0.03-9 µg/ml; the weaker binder
[4] = target: Aβ pathology (plaques) in frozen human AD brain sections (human) (UniProt P05067); assay: immunohistochemistry on frozen human AD brain sections (brain AD 13-75 by the legend)

Binder | binding [1] | other results
B1 | binds | –
B2 | binds | –
B3 | binds | –
B4 | – | binding (Aβ1-28 (human)): binds
B5 | – | binding (Aβ1-28 (human)): binds
B6 | binds | –
B7 | – | binding [2]: binds; binding [3]: binds; binding [4]: binds
B8 | binds | –
